# Experimental data published in paper PMC10752894.
# Chains of the proteins cited; added tags and fusions are not shown. Chains listed by the source or under a name are the forms on record and can include a tag or linker.
# Polγ holoenzyme WT (Polγ_A + Polγ_B) (Homo sapiens), one chain, as listed by the source, chain 1 of 2: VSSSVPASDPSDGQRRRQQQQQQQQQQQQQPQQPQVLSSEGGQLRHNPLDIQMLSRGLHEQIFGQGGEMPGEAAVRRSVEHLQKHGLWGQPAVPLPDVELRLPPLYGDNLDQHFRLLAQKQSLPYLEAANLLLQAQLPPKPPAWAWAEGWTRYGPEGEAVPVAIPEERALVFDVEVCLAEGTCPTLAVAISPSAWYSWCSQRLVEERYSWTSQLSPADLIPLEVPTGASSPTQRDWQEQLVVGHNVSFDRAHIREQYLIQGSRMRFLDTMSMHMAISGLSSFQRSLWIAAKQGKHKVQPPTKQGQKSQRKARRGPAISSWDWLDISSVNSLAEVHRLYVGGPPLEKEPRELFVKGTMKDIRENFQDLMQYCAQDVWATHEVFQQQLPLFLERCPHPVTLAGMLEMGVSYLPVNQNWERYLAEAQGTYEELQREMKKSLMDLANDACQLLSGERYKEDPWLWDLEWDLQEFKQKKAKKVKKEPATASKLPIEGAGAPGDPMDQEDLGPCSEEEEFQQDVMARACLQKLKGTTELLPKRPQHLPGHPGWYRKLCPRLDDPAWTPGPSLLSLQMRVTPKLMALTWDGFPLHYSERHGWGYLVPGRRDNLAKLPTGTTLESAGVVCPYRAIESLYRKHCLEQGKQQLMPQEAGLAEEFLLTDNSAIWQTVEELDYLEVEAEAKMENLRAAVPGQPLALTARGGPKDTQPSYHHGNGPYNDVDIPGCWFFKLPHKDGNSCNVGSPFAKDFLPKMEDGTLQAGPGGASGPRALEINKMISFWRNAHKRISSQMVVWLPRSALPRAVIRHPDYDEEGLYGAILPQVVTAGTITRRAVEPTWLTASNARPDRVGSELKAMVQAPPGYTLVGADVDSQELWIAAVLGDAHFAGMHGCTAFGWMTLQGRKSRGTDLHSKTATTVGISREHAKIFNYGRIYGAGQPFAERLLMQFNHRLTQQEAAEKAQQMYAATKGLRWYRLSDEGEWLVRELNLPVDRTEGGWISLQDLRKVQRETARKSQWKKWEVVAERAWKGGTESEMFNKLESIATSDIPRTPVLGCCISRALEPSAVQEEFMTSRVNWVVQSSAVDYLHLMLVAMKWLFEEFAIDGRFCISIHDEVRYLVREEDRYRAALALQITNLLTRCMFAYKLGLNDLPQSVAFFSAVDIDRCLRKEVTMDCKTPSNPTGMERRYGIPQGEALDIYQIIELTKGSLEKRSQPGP
# Polγ holoenzyme WT (Polγ_A + Polγ_B) (Homo sapiens), one chain, as listed by the source, chain 2 of 2: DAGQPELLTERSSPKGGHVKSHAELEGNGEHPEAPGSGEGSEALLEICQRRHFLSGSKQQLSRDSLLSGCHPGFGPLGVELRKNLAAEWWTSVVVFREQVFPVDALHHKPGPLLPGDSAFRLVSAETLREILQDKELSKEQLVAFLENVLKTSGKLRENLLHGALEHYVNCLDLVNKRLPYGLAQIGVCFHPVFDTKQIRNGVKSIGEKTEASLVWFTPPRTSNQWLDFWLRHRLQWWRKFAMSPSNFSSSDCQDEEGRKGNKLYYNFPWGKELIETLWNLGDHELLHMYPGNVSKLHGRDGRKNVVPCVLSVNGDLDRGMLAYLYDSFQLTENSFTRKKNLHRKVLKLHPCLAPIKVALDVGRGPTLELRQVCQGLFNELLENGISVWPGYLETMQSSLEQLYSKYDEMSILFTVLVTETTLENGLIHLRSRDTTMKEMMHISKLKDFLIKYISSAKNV
# Tested on: Polγ holoenzyme WT (Polγ_A + Polγ_B) (Homo sapiens)
# Assay: EMSA
# Details: 10 mM Mg2+; EMSA: 40 mM Tris-HCl pH 7.9, 60 mM NaCl, 10 mM MgCl2, 5% glycerol, 20 mM 2-mercaptoethanol, 0.1 mg/ml BSA, 150 nM Cy3 scaffold, 10 min room temperature; 0.5% agarose; recombinant protein; protein details: N-terminal His (both subunits); label: 5'-Cy3 on DNA24
sequence,measurement,value
GGTACAACTTGACGACATAGCGTG / CGGTCGAGTCACGACTCCGATTATCACGCTATGTCGTCAAGTTGTACC [DNA24/DNA24TS],binding result,binds

# Construct, isoform or probe ends are uncertain for at least one entry. At least one verdict rests on a figure or table, not on a statement of the authors.
